# Reference: PubChem BioAssay AID504764 (Drosophila RNAi Screening Center, 2011)
# Screen: 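Genes whose knock-down alters Notch-dependent transcription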 (primary screen)
# Cells: Drosophila Kc167 cells
# Reagent: long dsRNA against Drosophila genes
# Time to read-out: about 5 days (4 days dsRNA, then 24 h after transfection)
# Challenge: transfection of constitutively active membrane-tethered Notch lacking the extracellular domain, read 24 h later
# Detection: 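Light from a Notch-responsive E(spl)m3 luciferase reporter under active Notch, with control-promoter and no-Notch reporter wells to normalise; raw counts from paired wells a and b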
# Reading the numbers: induced reporter light, run 1, well a and induced reporter light, run 1, well b: higher = more light from the Notch target reporter with active Notch; control promoter light, run 1, well a and control promoter light, run 1, well b: higher = more light from the viral control promoter (cell number, transfection, viability); uninduced reporter light, run 1, well a: higher = more light from the Notch target reporter without active Notch
# Call rule: 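Wells with low control signal or poorly matching duplicates excluded; duplicates averaged; per source plate, z beyond ±2 for induced/control log2 ratio or beyond ±1.8 for induced/uninduced marks a hit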
# Meaning of the calls: active = modifier hit (raised or lowered Notch signal); inactive = not a hit
# The deposit covers about 22,000 reagents; shown is a random part of those with a known target gene and a result. In the full data, 403 (1.9%) got an active call. 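Unnormalised raw counts per well; ratio z-scores behind the hit calls and whether each hit raises or lowers signal are not deposited.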 The numbers tell different reagents against one gene apart. Names joined by + are all predicted targets of the reagent. The record does not give: the amount of reagent.
gene,dsRNA no.,"induced reporter light, run 1, well a","induced reporter light, run 1, well b","control promoter light, run 1, well a","control promoter light, run 1, well b","uninduced reporter light, run 1, well a",outcome
CG6923 (GeneID 41420),1,1.29e5,1.29e5,84930,73870,9505,inactive
CG40191 (GeneID 3354930),1,1.23e5,1.77e5,1.34e5,1.35e5,10265,inactive
Smvt (GeneID 43744),1,1.17e5,1.36e5,1.99e5,2.29e5,10665,inactive
CG9107 (GeneID 33843),1,1.32e5,1.11e5,1.17e5,1.31e5,9230,inactive
CG4631 (GeneID 34988),1,1.47e5,1.78e5,1.57e5,1.24e5,13110,inactive
dock (GeneID 33262),1,90930,90420,83370,94920,6530,inactive
CG30377 (GeneID 50252),1,1.42e5,1.36e5,1.65e5,1.35e5,12150,inactive
CG30377 (GeneID 50252),2,26830,26725,30755,27410,7150,inactive
kon (GeneID 35104),1,2.42e5,2.33e5,1.98e5,2.28e5,19430,inactive
chm (GeneID 43928),1,1.30e5,1.49e5,1.49e5,1.25e5,14788,inactive
CG15882 (GeneID 32895),1,79050,79845,97565,1.00e5,9355,inactive
CG30271 (GeneID 246518),1,1.95e5,1.55e5,1.98e5,1.70e5,13378,inactive
CG12661 (GeneID 31822),1,1.64e5,1.60e5,2.93e5,2.58e5,12085,inactive
Psf2 (GeneID 33641),1,2.51e5,2.13e5,2.65e5,2.01e5,12755,inactive
Rab9Db + Rab9D + Rab9Fa + 1 more,1,65240,70035,84810,61620,5655,inactive
Or59b (GeneID 37715),1,2.05e5,2.04e5,1.70e5,1.79e5,15285,inactive
CG4928 (GeneID 32682),1,1.23e5,1.40e5,98365,56490,9360,inactive
CG17803 (GeneID 42141),1,1.94e5,1.79e5,1.93e5,1.69e5,12435,inactive
CG9030 (GeneID 32427),1,93270,84280,1.39e5,90455,14960,inactive
CG8945 (GeneID 32693),1,91935,74270,98755,81065,11970,inactive
CG8945 (GeneID 32693),2,72040,55480,66845,81145,9370,inactive

2 entries from above, reformatted:
gene | dsRNA no. | induced reporter light, run 1, well a | induced reporter light, run 1, well b | control promoter light, run 1, well a | control promoter light, run 1, well b | uninduced reporter light, run 1, well a | outcome
CG30377 (GeneID 50252) | 1 | 1.42e5 | 1.36e5 | 1.65e5 | 1.35e5 | 12150 | inactive
CG30377 (GeneID 50252) | 2 | 26830 | 26725 | 30755 | 27410 | 7150 | inactive

Further reagents follow:
gene,dsRNA no.,"induced reporter light, run 1, well a","induced reporter light, run 1, well b","control promoter light, run 1, well a","control promoter light, run 1, well b","uninduced reporter light, run 1, well a",outcome
Sry-delta (GeneID 43572),1,68035,55450,63665,61180,5065,inactive
Ctl1 (GeneID 38523),1,1.02e5,1.25e5,2.20e5,1.86e5,11890,inactive
CG17097 (GeneID 34461),1,1.73e5,1.69e5,93250,1.18e5,19825,inactive
CG7218 (GeneID 42165),1,85765,90250,82075,78275,7210,inactive
CG5026 (GeneID 39026),1,1.05e5,98475,71935,30285,6365,inactive
CG4884 (GeneID 43357),1,2.52e5,1.63e5,2.40e5,2.31e5,17970,inactive
CG9410 + CG15908,1,1.25e5,1.28e5,1.19e5,1.26e5,8180,inactive
CG9410 + CG15908,2,2.32e5,1.92e5,1.96e5,1.76e5,14345,inactive
Magi (GeneID 37403),1,82385,70500,40720,65535,5515,inactive
Magi (GeneID 37403),2,25790,46275,69540,64840,2440,inactive
CG5715 (GeneID 42895),1,1.90e5,1.49e5,2.02e5,1.87e5,12942,inactive
CG7945 (GeneID 39679),1,1.68e5,1.81e5,73740,92105,9415,inactive
CG31323 (GeneID 318682),1,1.60e5,1.77e5,2.25e5,2.11e5,13155,inactive
